PMC7079221
These are yes or no findings as the source states them, for the method shown. In cells and extracts the contact can be indirect. Some entries that bind do so weakly or less than the wild type.

Sequences of proteins named here, by UniProt entry; tags and fusion partners are left off.
UniProt Q00899: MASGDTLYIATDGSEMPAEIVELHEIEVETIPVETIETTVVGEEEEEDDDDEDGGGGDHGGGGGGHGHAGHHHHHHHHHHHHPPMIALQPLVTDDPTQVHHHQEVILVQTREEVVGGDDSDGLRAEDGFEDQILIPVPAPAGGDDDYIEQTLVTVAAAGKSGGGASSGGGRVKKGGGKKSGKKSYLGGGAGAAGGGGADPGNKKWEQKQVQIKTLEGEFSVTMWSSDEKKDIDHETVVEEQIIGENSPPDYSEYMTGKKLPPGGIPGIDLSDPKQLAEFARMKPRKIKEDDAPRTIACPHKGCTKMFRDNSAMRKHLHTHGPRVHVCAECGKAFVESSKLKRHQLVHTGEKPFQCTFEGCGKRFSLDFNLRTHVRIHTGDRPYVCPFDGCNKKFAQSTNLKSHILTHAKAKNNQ
UniProt Q60613: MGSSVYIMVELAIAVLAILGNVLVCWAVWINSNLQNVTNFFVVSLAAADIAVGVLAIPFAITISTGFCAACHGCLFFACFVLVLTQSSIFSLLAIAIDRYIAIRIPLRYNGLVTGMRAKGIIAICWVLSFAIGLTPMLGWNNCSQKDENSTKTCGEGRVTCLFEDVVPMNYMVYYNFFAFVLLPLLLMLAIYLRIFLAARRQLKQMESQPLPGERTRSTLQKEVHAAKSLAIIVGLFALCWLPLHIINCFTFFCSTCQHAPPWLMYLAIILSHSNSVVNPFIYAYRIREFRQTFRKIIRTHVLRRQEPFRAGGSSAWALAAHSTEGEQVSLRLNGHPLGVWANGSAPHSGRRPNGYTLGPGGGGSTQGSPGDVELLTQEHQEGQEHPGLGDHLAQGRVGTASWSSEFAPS
UniProt O09106: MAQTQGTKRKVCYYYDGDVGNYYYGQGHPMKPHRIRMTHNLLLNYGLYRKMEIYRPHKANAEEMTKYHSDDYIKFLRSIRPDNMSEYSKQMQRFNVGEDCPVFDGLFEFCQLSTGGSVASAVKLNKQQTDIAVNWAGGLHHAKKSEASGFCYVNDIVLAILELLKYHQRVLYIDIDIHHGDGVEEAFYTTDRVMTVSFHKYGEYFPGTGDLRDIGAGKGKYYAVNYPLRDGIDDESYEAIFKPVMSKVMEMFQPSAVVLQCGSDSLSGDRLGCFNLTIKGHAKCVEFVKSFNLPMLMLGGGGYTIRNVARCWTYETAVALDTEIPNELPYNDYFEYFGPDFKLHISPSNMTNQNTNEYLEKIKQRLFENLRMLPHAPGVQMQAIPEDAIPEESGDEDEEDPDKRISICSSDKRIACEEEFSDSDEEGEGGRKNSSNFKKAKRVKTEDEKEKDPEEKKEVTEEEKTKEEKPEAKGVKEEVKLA

How the values were obtained:
[1] = biological target: T1, Adenosine receptor A1 (mouse (endogenous in primary cortical astrocytes)) (UniProt Q60612); assay: co-IP; supernatant of astrocytes exposed to OGD for the indicated times; anti-A1AR antibody (1:50) overnight, protein A/G agarose beads 2 h at 4°C; western blotting
T1 sequence: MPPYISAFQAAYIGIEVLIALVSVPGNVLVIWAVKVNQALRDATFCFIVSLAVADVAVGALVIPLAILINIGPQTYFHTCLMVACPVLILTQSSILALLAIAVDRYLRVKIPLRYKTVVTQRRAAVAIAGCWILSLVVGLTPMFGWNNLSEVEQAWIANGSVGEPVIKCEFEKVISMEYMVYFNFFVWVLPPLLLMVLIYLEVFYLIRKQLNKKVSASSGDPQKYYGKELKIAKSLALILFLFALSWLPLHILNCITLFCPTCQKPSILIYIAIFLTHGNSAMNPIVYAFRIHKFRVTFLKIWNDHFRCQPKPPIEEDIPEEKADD

[2] = biological target: Ying Yang 1 (mouse (endogenous in primary cortical astrocytes)) (UniProt Q00899); assay: co-IP; supernatant of astrocytes with or without OGD; anti-YY1 antibody (1:50) overnight, protein A/G agarose beads 2 h at 4°C; western blotting

| binding [1] | binding [2] | Substance |
| --- | --- | --- |
| binds |  | Adenosine receptor A2a (from UniProt Q60613 1-410) |
|  | binds | Histone deacetylase (HDAC)1 (from UniProt O09106 1-482) (enzyme) |
